Values from PubChem BioAssay AID493246 (Drosophila RNAi Screening Center, 2011)

Test: 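Identify essential fly genes by loss of cell viability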 (primary screen)
Cell system: Drosophila Kc and S2R+ cells
Knock-down reagent: long dsRNA against Drosophila genes
Measured: 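Cell number per well after knock-down, printed as raw plate values; calls were based on per-plate z-scores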
Scale: Kc cell number and S2R+ cell number: higher = more cells remaining
Hit rule: 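Active when the per-plate z-score of cell number is 3 or more in the direction of fewer cells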
In all, the deposit lists about 21,000 reagents; this is an unselected part of those that have a named target and a result. Over the whole deposit, 429 (2%) were called active. 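Values are raw and not normalised between plates; calls rest on per-plate z-scores that were not deposited.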 Unmarked entries are inactive. Names joined by + are all predicted targets of the reagent. No sequences are given here. The record does not give: the amount of reagent, the time to read-out.

Target gene	DRSC id	Kc cell number, rep 1	Kc cell number, rep 2	S2R+ cell number, rep 1	S2R+ cell number, rep 2
TotA (Turandot A)	DRSC13448	1.36e6	1.34e6	9.84e5	1.09e6
Clc (Clathrin light chain)	DRSC11116	1.43e6	1.50e6	1.18e6	1.25e6
Nlg1 (Neuroligin 1)	DRSC12485	1.55e6	1.61e6	1.12e6	1.35e6
Nlg1 (Neuroligin 1)	DRSC12532	1.55e6	1.68e6	1.18e6	1.28e6
Nlg1 (Neuroligin 1)	DRSC12533	1.39e6	1.54e6	1.22e6	1.25e6
Nlg1 (Neuroligin 1)	DRSC12539	1.41e6	1.56e6	1.23e6	1.31e6
CG42697	DRSC05740	6.19e5		7.93e5	
CG44251	DRSC06856	1.49e6	1.54e6	1.18e6	1.31e6
f-cup (flyers-cup)	DRSC14139	1.47e6	1.53e6	1.30e6	1.34e6
CG7794	DRSC16313	1.38e6	1.35e6	1.05e6	1.16e6
TppII (Tripeptidyl-peptidase II)	DRSC07565	1.47e6	1.49e6	1.20e6	1.13e6
CG14417	DRSC18638	1.73e6	1.82e6	1.14e6	1.26e6
CG33460	DRSC05570	1.60e6	1.61e6	1.07e6	1.31e6
FoxP (Forkhead box P)	DRSC15159	1.71e6	1.80e6	1.20e6	1.32e6
beat-IIa (beaten path IIa)	DRSC14813	1.24e6	1.28e6	1.12e6	1.30e6
beat-IIa (beaten path IIa)	DRSC14814	1.27e6	1.46e6	1.09e6	1.24e6
RpL21 (Ribosomal protein L21)	DRSC03704	9.40e5 (active)	1.08e6	7.11e5	2.35e5
CG13018	DRSC06274	1.72e6	1.90e6	1.43e6	1.60e6
CG8089	DRSC07074	1.62e6	1.67e6	1.37e6	1.40e6
AIMP2 (aaRS-interacting multifunctional protein 2)	DRSC09877	1.59e6	1.61e6	1.40e6	1.51e6
CG31287	DRSC13138	1.45e6	1.46e6	1.01e6	1.12e6
CG4575 (retired record)	DRSC18372	1.49e6	1.59e6	1.07e6	1.19e6
wa-cup (walker cup)	DRSC12511	1.57e6	1.67e6	1.34e6	1.47e6
Twdlalpha (Tweedlealpha)	DRSC19914	1.55e6	1.50e6	1.11e6	1.24e6
CG16739	DRSC06621	1.83e6	1.83e6	1.10e6	1.38e6
Ice1 (Interacts with the C terminus of ELL 1)	DRSC04191	1.26e6 (active)	1.37e6	9.01e5	9.34e5
SP1029	DRSC16848	1.43e6	1.45e6	9.88e5	1.08e6
SdhB (Succinate dehydrogenase, subunit B (iron-sulfur))	DRSC05018	1.41e6	1.53e6	1.06e6	1.12e6
Bre1	DRSC09742	9.55e5	1.14e6	1.29e6	8.94e5
dpr19 (defective proboscis extension response 19)	DRSC02237	1.51e6	1.73e6	1.34e6	1.49e6
AstA-R2 (Allatostatin A receptor 2)	DRSC14171	1.45e6	1.46e6	9.88e5	1.07e6
CG30281	DRSC04528	1.46e6	1.53e6	1.06e6	1.04e6
CG18336	DRSC06334	1.54e6	1.62e6	1.25e6	1.33e6
ATPsynF (ATP synthase, subunit F)	DRSC04482	1.40e6	1.50e6	1.04e6	1.09e6
CG13202	DRSC06326	1.61e6	1.65e6	1.20e6	1.37e6
Reg-5 (Rhythmically expressed gene 5)	DRSC04647	1.31e6	1.28e6	7.94e5	9.45e5
Oscillin	DRSC03001	1.29e6	1.31e6	5.86e5	9.83e5

Limited to “Kc cell number, rep 1” (9 entries from above):
CG33460 [DRSC05570]: 1.60e6
FoxP (Forkhead box P) [DRSC15159]: 1.71e6
beat-IIa (beaten path IIa) [DRSC14813]: 1.24e6
beat-IIa (beaten path IIa) [DRSC14814]: 1.27e6
RpL21 (Ribosomal protein L21) [DRSC03704]: 9.40e5 (active)
CG13018 [DRSC06274]: 1.72e6
CG8089 [DRSC07074]: 1.62e6
AIMP2 (aaRS-interacting multifunctional protein 2) [DRSC09877]: 1.59e6
CG31287 [DRSC13138]: 1.45e6

The listing continues:
Target gene	DRSC id	Kc cell number, rep 1	Kc cell number, rep 2	S2R+ cell number, rep 1	S2R+ cell number, rep 2
CG7916	DRSC01901	1.49e6	1.56e6	1.24e6	1.33e6
CG15254	DRSC01870	1.31e6	1.33e6	1.02e6	1.16e6
dpr6 (defective proboscis extension response 6)	DRSC09005	9.53e5 (active)	9.70e5	6.97e5	8.47e5
dpr6 (defective proboscis extension response 6)	DRSC10162	1.34e6	1.39e6	1.42e6	1.48e6
CG32599	DRSC19433	5.60e5		7.72e5	
CRMP (Collapsin Response Mediator Protein)	DRSC12073	1.23e6	1.32e6	1.04e6	1.14e6
CRMP (Collapsin Response Mediator Protein)	DRSC12345	1.50e6	1.58e6	1.23e6	1.24e6
e (ebony)	DRSC16936	1.56e6	1.69e6	1.30e6	1.39e6
CG13308	DRSC09979	1.31e6	1.21e6	1.21e6	1.23e6
CG7988	DRSC16358	1.36e6	1.34e6	1.03e6	1.12e6
Hibch (3-hydroxyisobutyryl-CoA hydrolase)	DRSC15705	1.66e6	1.57e6	1.23e6	1.40e6
comm (commissureless)	DRSC11336	1.41e6	1.78e6	1.42e6	1.54e6
Or1a (Odorant receptor 1a)	DRSC18689	1.59e6	1.74e6	1.10e6	1.46e6
CG14853	DRSC14977	1.40e6	1.45e6	9.79e5	1.12e6
pad (poils au dos)	DRSC14227	1.24e6	1.24e6	1.13e6	1.22e6
RPA3 (Replication protein A3)	DRSC19658	1.56e6	1.56e6	1.01e6	1.11e6
Sod2 (Superoxide dismutase 2 (Mn))	DRSC07554	1.42e6	1.47e6	1.21e6	1.22e6
CG42394 + CG6567	DRSC12821	1.81e6	1.91e6	1.12e6	1.33e6
CG12547	DRSC07759	1.32e6	1.35e6	9.71e5	1.22e6
CG12446	DRSC20618	1.41e6	1.46e6	1.05e6	1.15e6
ScsbetaG (Succinyl-coenzyme A synthetase beta subunit, GDP-forming)	DRSC11294	1.53e6	1.50e6	1.16e6	1.24e6
Gycalpha99B (Guanylyl cyclase alpha-subunit at 99B)	DRSC16690	5.12e5		7.97e5	
